Measurements published in US5948406A, “Immunogens, antibodies formed therefrom, and coating antigens useful in a diacylhydrazine immunoassay method” (Rohm and Haas Company, priority 1997, dated 1999).

How the values were obtained:
[1] = system: ^2651 IgG (coating antibody); assay: Direct assay (competition with 2651-HRP for immobilized ^2651 IgG coating antibody); type: binding, rabbit
From the text: (§1) As used herein the term "IC50 " is defined as the concentration of the inhibitor required to reduce the absorbance to one-half the absorbance measured when no inhibitor was present. This determination is accomplished by plotting the percent (%) activity remaining versus the concentration of the inhibitor where the percent (%) activity remaining is given by:
(§2) % activity=(Ao -Ai /Ao)×100
(§3) where Ao is the measured absorbance when no inhibitor is present and Ai is the measured absorbance at the i^th concentration of inhibitor. The percent inhibition is then given by the relationship 100-(% activity).
(§4) Sensitivity in ng is calculated from the concentration of the inhibitor determined from regression analysis of the standard deviations of the replicate analyses of the standard concentrations as described in the equation: […]
(§5) where S is the sensitivity in ng, Yint is the Y-intercept of the regression line from the standard deviations of the replicate analyses in absorbance units, m is the slope of the regression line in absorbance units per ng/ml and V is the volume of sample applied to the microtiter plate in ml.
A microplate was coated with ^2651 IgG. Starting with column 1, 100 μl of 10 μg/ml ^2651 IgG were added to each well and 1:2 serial dilutions made across the plate. The plate was sealed and stored at 4° C. until ready to use. After emptying, the plate was washed with 0.01% Tween 20 in PBS and blocked with 1% BSA in PBS for about 1 hour at room temperature. After blocking, the plate was emptied and 150 μl PBS added to each well. Then 50 μl of 2651-HRP dilutions were added down the plate starting with 10 μg/ml and continuing with 1:2 dilutions down the plate. After a 1 hour room temperature incubation, the plate was washed as before and 150 μl 1-Step® Slow-TMB (peroxidase substrate from Pierce Chemical Co.) was added to each well. After one hour development, 150 μl of 1N H2 SO4 was added to stop the reaction and the absorbance of each well measured at 450 nm with the Dynatech MR5000 Microplate Reader. Controls included wells with no coating antibody and wells in which no 2651-HRP were added. A ^2651 IgG coating antibody concentration of 0.625 μg/ml and a 2561-HRP concentration of 1.25 μg/ml were determined to be the optimum concentration for use with 1-Step® Slow-TMB substrate.
The wells of a microplate were coated with 100 μl each of 0.625 μg/ml ^2651 IgG. One row was left uncoated as a control. The plate was kept at 4° C. overnight. The following day the plate was washed with 0.01% Tween 20 polysorbate in PBS and blocked with 1% BSA in PBS for at least 30 minutes. Standard solutions of RH5992, RH2651, RH2703, and RH2485 were made from 1 mg/ml stock solutions. Standard solutions of RH0345 were prepared from a 0.1 ng/ml, 0.5 ng/ml, 1 ng/ml, 5 ng/ml, 10 ng/ml, 50 ng/ml, and 100 ng/ml. After the blocking lo solution was emptied, 150 μl of the standards were added to the appropriate wells. For the zero control 150 μl of PBS was added. After a 45 minute incubation at room temperature, 50 μl of 1.25 μg/ml 2651-HRP were added to each well and the plate agitated to mix the contents. […] After incubation for 45 minutes at room temperature, the plate was washed as before and 150 μl 2651-HRP was added to each well and the plate agitated to mix the contents. […] After incubation for 45 minutes at room temperature, the plate was washed as before and 150 μl Step 1® Slow TMB added to each well. After 2 hours at room temperature, 150 μl 1N H2 SO4 was added to each well and the absorbance read at 450 nm with the Dynatech MR5000 Microplate Reader.
FIG. 16a illustrates a typical curve generated from the assay. The linear portion of the curve is visualized between 0.01 ng/ml and 10 ng/ml. A typical standard curve in the linear range of the assay is illustrated by FIG. 16b using inverse absorbances to generate a positive slope. The limit of detection was calculated as 0.096 ng/ml and the sensitivity calculated as 0.005 ng for RH5992.

[2] = system: Protein A purified IgG (rabbit antibodies to diacyl hydrazines); assay: Indirect immunoassay (inhibition of purified IgG binding to RH2703-BSA coating antigen); details: indirect assay; for Detection limit: three times the background noise
From the text: as §1, §2, §3
The percent cross reactivity was derived by the equation: […]
where IC50,5992 is the IC50 concentration for RH5992 as determined above and IC50,analog is the IC50 concentration of the analog, i.e., RH2703, RH2651, and RH0345.
as §4, §5
RH2703-BSA was used as the coating antigen. The concentration required to give a readable response (0.3-0.5 absorbance units @ 410 nm) in the presence of the minimum quantity of antigen (RH2703) was optimized in the presence of a constant amount of protein A purified IgG (10 μl of a 20 μg/ml solution, 100 ng/well) by a checkerboard type assay (see Voller et al, Bull of World Health Organization, 53, 35 (1976)). The concentration of the Protein A purified IgG had been previously optimized in the presence of a constant amount of coating antigen (RH2703-BSA, 100 μl of a 10 μg/ml solution) to give a readable response to the minimum amount of RH5992.
Antibody concentration was optimized to be approximately 20 μg/ml (100 ng per micro well) and the coating antigen was optimized to be 25 ng/ml or 2.5 ng per micro well. When converted to a molar basis and assuming a hapten/protein binding ratio of 55, the hapten is in a three-fold molar excess of the IgG added.
The percent inhibition for RH2703, RH2651, RH5992, RH0345 and RH2485 were determined to the protein IgG in the presence of the optimized concentration of RH2703-BSA coating antigen. Each test substance was assayed at seven concentrations ranging from no test substance 0 ng/ml to 1000 ng/ml. The assay at each concentration was replicated seven times. Antigen negative and antibody negative wells provided negative controls while KLH/anti-KLH wells were used as positive controls.
Serial dilutions of the test substance stock solutions were made with coating buffer containing 0.1% TWEEN 20 polysorbate to give 1000 ng/ml, 100 ng/ml, 10 ng/ml, 1 ng/ml, 0.1 ng/ml, and 0.01 ng/ml assay concentrations. Coating buffer w/0.1% TWEEN 20 polysorbate was used as the 0 ng/ml assay concentration. The test substance assay concentrations (190 μl each) were incubated with 10 μl of the protein A IgG ([…]) for one hour at room temperature. After the incubation period, 100 μl of the test substance-IgG mixture was transferred to the appropriate microtiter well. The microtiter wells had been previously coated with the optimized concentration of RH2703-BSA and the excess protein binding sites were blocked with 0.3 ml of a 1% BSA solution in coating buffer. The plates were incubated for an additional hour at room temperature.
After the second incubation the plates were washed and goat, anti-rabbit immunoglobulin conjugated to alkaline phosphatase (0.6 mg reconstituted with 1 ml 50% glycerol and subsequently diluted with 1:5000 with blocking solution Pierce Chemical Co) was added. The plates were incubated, washed and PNPP substrate added as described in Example 5. […]

`CC(C)(C)N(NC(=O)c1ccc(Cl)cc1)C(=O)c1ccccc1` [RH0345] gave a Detection limit [1] of 5.10 ng/mL, a Sensitivity [1] of 0.255 ng and a Sensitivity [2] of 0.08 ng. For the same compound, the Detection limit [2] was 0.75 ng/mL.
In the case of `Cc1cc(C)cc(C(=O)N(NC(=O)c2ccc(CC(=O)O)cc2)C(C)(C)C)c1` [RH2703], the Detection limit [1] is reported as 0.031 ng/mL, the Sensitivity [1] is reported as 0.002 ng and the Sensitivity [2] is reported as 0.19 ng. The Detection limit [2] was 1.7 ng/mL.
Compound `Cc1cc(C)cc(C(=O)N(NC(=O)c2ccc(C(=O)O)cc2)C(C)(C)C)c1` [RH2651] has a Detection limit [1] of 0.013 ng/mL, a Sensitivity [1] of 0.001 ng and a Sensitivity [2] of 0.22 ng. For the same compound, the Detection limit [2] was 1.9 ng/mL.
`COc1cccc(C(=O)NN(C(=O)c2cc(C)cc(C)c2)C(C)(C)C)c1C` [RH2485] showed a Detection limit [1] of 0.482 ng/mL, a Sensitivity [1] of 0.024 ng and a Sensitivity [2] of 0.08 ng. The Detection limit [2] was 1.8 ng/mL.
In the case of `CCc1ccc(C(=O)NN(C(=O)c2cc(C)cc(C)c2)C(C)(C)C)cc1` [RH5992], the Detection limit [1] is reported as 0.096 ng/mL and 0.106 ng/mL, the Sensitivity [1] is reported as 0.005 ng and the Sensitivity [2] is reported as 0.07 ng. For the same compound, the Detection limit [2] was 0.66 ng/mL.

Several values for one entry are separate records, joined by “and”; a condition that tells them apart may be missing. Identical values can stand only once.
